Percent effect of library compounds

By UniProt entry, the sequences of proteins in these tests, tags left out. Residues count along the entry.
UniProt Q4DA54, 1-478: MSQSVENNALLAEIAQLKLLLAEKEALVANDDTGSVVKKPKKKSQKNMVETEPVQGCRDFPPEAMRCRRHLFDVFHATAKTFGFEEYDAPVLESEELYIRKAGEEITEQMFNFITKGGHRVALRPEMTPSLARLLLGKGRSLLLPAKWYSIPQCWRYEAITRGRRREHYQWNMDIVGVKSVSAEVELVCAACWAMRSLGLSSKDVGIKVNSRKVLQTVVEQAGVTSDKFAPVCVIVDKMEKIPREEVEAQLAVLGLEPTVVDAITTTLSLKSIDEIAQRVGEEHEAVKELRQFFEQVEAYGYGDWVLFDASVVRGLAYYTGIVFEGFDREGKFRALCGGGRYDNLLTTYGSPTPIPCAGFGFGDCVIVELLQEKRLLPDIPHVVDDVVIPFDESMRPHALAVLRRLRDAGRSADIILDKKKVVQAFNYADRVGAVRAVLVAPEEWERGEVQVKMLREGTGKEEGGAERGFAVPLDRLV
UniProt I6X8D2, whole entry: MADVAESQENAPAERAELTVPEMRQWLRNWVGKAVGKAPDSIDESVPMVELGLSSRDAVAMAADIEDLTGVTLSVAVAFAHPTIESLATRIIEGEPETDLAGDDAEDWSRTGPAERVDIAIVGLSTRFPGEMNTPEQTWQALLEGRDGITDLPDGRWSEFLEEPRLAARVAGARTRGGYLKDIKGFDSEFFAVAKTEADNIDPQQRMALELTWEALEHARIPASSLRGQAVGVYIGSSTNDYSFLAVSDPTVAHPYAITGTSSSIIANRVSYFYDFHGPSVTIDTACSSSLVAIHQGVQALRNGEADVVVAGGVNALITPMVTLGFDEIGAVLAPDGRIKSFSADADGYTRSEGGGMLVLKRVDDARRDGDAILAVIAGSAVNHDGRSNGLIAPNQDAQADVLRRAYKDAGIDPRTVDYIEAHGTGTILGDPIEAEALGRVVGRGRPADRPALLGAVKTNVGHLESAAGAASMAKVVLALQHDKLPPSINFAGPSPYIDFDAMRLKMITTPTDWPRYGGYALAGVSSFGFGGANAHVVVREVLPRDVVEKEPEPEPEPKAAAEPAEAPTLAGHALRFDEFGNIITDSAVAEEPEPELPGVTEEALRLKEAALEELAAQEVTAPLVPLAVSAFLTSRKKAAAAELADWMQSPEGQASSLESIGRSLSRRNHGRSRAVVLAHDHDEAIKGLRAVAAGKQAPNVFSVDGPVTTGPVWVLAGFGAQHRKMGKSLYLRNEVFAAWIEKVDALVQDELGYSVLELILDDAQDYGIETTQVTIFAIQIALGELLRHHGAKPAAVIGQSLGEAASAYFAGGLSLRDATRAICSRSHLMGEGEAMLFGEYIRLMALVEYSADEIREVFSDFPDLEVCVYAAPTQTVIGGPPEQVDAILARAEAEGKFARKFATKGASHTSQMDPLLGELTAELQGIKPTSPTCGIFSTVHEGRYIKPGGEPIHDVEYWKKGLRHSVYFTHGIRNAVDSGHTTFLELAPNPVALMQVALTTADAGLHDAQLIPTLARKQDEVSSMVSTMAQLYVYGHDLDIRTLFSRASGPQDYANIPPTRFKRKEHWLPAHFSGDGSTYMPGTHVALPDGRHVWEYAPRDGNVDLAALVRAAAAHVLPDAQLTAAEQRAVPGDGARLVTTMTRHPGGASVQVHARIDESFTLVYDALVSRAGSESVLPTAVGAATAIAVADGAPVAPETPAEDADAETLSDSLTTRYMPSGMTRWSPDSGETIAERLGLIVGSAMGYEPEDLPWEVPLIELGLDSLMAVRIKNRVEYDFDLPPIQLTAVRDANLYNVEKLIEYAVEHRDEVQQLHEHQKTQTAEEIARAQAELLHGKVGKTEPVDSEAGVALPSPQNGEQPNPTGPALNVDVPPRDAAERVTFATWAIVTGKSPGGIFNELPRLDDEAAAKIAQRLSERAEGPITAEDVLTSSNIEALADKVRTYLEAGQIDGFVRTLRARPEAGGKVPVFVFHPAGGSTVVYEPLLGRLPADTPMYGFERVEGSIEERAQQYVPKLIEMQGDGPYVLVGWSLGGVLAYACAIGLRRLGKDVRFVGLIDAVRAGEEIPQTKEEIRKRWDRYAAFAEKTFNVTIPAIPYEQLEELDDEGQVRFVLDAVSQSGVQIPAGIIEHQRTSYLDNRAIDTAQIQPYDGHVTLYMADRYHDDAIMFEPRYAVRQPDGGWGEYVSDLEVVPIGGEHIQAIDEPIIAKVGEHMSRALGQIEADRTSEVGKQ
UniProt P9WNZ1, whole entry: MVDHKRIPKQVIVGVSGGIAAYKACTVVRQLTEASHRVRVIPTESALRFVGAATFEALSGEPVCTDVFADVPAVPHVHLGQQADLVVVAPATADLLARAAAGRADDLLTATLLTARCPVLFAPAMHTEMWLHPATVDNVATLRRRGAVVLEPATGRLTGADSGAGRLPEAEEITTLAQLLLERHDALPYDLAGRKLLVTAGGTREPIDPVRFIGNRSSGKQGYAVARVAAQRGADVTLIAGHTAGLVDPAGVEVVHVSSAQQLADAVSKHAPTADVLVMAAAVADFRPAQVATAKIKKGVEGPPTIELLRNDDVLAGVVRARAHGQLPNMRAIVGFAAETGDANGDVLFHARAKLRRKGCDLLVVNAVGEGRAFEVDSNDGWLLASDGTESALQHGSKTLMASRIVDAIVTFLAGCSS
UniProt Q8IDJ8, 1-583: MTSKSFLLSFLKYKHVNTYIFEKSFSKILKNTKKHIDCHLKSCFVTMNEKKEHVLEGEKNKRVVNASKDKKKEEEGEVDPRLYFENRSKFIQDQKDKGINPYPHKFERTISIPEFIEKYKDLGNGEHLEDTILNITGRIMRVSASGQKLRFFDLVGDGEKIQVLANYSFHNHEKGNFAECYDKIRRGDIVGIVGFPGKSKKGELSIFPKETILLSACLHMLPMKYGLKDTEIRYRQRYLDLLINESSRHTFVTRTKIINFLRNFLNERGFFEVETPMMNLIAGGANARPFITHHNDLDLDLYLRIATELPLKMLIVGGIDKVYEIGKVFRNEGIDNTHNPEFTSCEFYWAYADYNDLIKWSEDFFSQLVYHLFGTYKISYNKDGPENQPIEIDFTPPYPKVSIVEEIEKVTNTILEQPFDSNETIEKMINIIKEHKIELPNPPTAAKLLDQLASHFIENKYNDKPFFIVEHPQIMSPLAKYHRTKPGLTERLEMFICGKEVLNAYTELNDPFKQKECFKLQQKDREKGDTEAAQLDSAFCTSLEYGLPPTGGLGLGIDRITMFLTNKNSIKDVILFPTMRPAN
UniProt P9WFT3, whole entry: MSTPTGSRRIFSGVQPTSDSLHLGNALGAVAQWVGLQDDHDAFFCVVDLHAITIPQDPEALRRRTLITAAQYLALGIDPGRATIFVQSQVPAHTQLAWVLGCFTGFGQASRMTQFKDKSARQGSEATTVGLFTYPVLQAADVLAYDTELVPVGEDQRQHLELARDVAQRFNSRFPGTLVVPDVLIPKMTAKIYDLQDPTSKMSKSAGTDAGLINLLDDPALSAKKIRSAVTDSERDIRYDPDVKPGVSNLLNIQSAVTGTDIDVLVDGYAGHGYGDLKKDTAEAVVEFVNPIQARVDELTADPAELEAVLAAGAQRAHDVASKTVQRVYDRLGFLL

TcHisRS: 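Enzyme assay of histidyl-tRNA synthetase; the read-out is not stated. Target: Histidine-tRNA ligase, Trypanosoma cruzi CL Brener (UniProt Q4DA54). Tested at 30 µM. Higher reads as stronger inhibition (inferred: compounds with an IC50 in retests scored well above the rest). Size under these conditions: about 69,000 compounds, about 31 of them at 50% or above in at least one test.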
Pks13 thioesterase: 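Enzyme assay of the thioesterase domain of polyketide synthase 13; the read-out is not stated. Target: Polyketide synthase Pks13, Mycobacterium tuberculosis (UniProt I6X8D2). Concentration: 30 µM. The record gives no direction; the compounds picked for IC50 retests had high values, so higher reads as stronger inhibition. Size under these conditions: about 67,000 compounds, about 300 of them at 50% or above in at least one test.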
CoaBC: 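Enzyme assay of CoaBC with a phosphate dye (Biomol Green) read at 650 nm. Target: Coenzyme A biosynthesis protein CoaBC, Mycobacterium tuberculosis (UniProt P9WNZ1). Concentration: 30 µM. Higher reads as stronger inhibition, judged from the few compounds that gave an IC50. Most strong results did not repeat in a second test. Size under these conditions: about 67,000 compounds, about 40 of them at 50% or above in at least one test.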
Leishmania in macrophages: 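Cell assay of Leishmania donovani living inside macrophages; the read-out is not stated. Concentration: 30 µM. The record gives no direction; compounds that gave an IC50 in retests scored well above the rest, so higher reads as stronger inhibition. Of about 69,000 compounds tested this way, about 1,000 (1.5%) reached 50% or more in at least one test.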
PfKRS1: 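Lysine-tRNA ligase, Plasmodium falciparum 3D7 (UniProt Q8IDJ8). Enzyme assay of the cytosolic lysyl-tRNA synthetase in 384-well plates, read by luminescence. Compounds at 30 µM. Direction is inferred from only a few compounds that gave an IC50; most scored high, so higher reads as stronger inhibition. Size under these conditions: about 69,000 compounds, about 49 of them at 50% or above in at least one test.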
MtTrpRS: 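Enzyme assay of tryptophanyl-tRNA synthetase; the read-out is not stated. Target: Tryptophan-tRNA ligase, Mycobacterium tuberculosis (UniProt P9WFT3). Concentration: 10 µM. Direction is not recorded; retested compounds ran higher, which suggests that high means inhibition. Of about 65,000 compounds tested this way, about 64 (0.098%) reached 50% or more in at least one test.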

Results are given as percent effect. The record does not define 0% and 100%; most values in the screen are far below 50% and negative numbers occur (in some assays of this library far below -100). Compounds were drawn at random from those tested, without regard to their results. A dash means the value is not listed here; it may have been measured.

compound,TcHisRS,Pks13 thioesterase,CoaBC,Leishmania in macrophages,PfKRS1,MtTrpRS
Fc1cnc(N2CCCC3(CCN(Cc4ccco4)C3)C2)nc1.O=C(O)C(F)(F)F.O=C(O)C(F)(F)F (centres undefined),-,-,-,29.17%,-,-
Cc1cc(N2CCC(C(=O)O)(n3ccc(C(C)(C)C)n3)CC2)nc(N)n1,6.061%,-7.475%,0.2558%,14.96%,1.925%,1.732%
Fc1ccc(CN[C@@H]2COC[C@H]2c2ccc(F)cc2)cc1.O=C(O)CC(O)(CC(=O)O)C(=O)O,-,-,-,16.69%,-,-
CC(=O)NC(C)C(=O)Nc1ccc(OCc2cccc(F)c2)cc1C (centres undefined),1.111%,-35.83%,-5.462%,6.939%,1.649%,-11.84%
CCn1nc(C)cc1C(=O)N1C[C@H]2CCC[C@@]2(COc2ccccn2)C1,4.132%,-14.81%,-6.303%,-,2.647%,-1.221%
CC(C)C(C)NC(=O)CN1CCSCC1 (centres undefined),6.557%,-22.58%,10.51%,29.69%,6.037%,-2.832%
CC(O)C1CCN(c2cc(Cl)ccc2C#N)CC1 (centres undefined),4.819%,0.2828%,3.713%,24.02%,1.648%,1.314%
CC(Sc1nnnn1C1CCOCC1)C(=O)NC1CCCCC1 (centres undefined),4.564%,-13.64%,-6.696%,20.66%,3.671%,-0.1776%
C[S+]([O-])c1nncn1CC(=O)c1ccc2c(c1)CCO2 (centres undefined),-4.237%,-18.98%,1.762%,-9.473%,5.546%,5.029%
CCCC(O)CN1CCC(=O)N(Cc2ccccc2)Cc2ccccc21 (centres undefined),10.11%,1.582%,-1.937%,-13.06%,4.928%,-
COc1cccc(CN2CCN(c3noc(C(C)C)n3)CC2)c1F,12.71%,-17.41%,9.153%,5.01%,1.909%,-0.3276%
COc1cc(CNc2cc(-c3ccoc3C)nn2CCO)ccc1F,10.59%,-15.07%,5.897%,-30.54%,-5.35%,0.9709%
O=C(NCc1ccccc1Cn1cncn1)C1CCCC1,9.827%,-18.53%,1.434%,25.8%,2.5%,-2.298%
CCc1ncc(CN2CCC3(CCCN(CC4CCC4)C3)C2)cn1 (centres undefined),14.85%,0.6422%,6.796%,9.691%,0.2241%,-2.016%
CN1C(=O)C(c2cccnc2)CC12CCN(C(=O)c1ccc[nH]1)CC2 (centres undefined),0.9901%,12.7%,2.447%,-13.32%,2.946%,4.9%
CN(C)CCN1CCOCC2(C1)CN(Cc1nccs1)CCO2 (centres undefined),6.452%,-6.855%,-21.26%,-,-2.641%,16.65%
[H][C@]12CC[C@@]3(N=C(c4ccccc4)NC3=O)[C@@]1([H])CN(Cc1nccs1)C2,-,-,-,-6.721%,-,-
CCOC(=O)Cn1c(=O)nc(N)c2c(-c3ccc(OC)cc3)csc21,1.754%,-43.45%,5.051%,-0.4411%,4.776%,3.711%
Cc1ccc(OC2(C(=O)O)CCN(C(=O)c3cccc(F)c3)CC2)cn1,-2.041%,-11.43%,7.54%,-5.312%,8.407%,-4.86%
Cc1n[nH]c2c1C(c1ccc3c(c1)OCO3)SCC(=O)N2 (centres undefined),-6.509%,-35.94%,-1.579%,0.6227%,-4.739%,17.89%
CC(C)CCn1cc(C(C(=O)O)N2CCCN(C3CCCC3)CC2)cn1 (centres undefined),19.4%,-25.01%,10.12%,17.02%,0.4424%,-3.446%
O=C(NCC(=O)N1CCCCC1)c1ccc(Cl)cc1I,0.8333%,-20.01%,-3.198%,34.07%,1.388%,-4.567%
O=S(=O)(c1ccccc1)N1C[C@@H]2COC[C@]2(CN2CCOCC2)C1,3.922%,27.2%,-4.39%,-,1.332%,10.45%
c1ccc(Cc2noc(CN3CCc4cncnc4C3)n2)cc1,12.72%,-10.93%,3.781%,7.217%,0.172%,4.655%
CN(C)C(=O)c1n[nH]c2c1CN(CC1CCCCC1)C2,-6.667%,2.095%,-2.683%,-,1.154%,-
[H][C@@]12C[C@@H](OC)C[C@]1([H])CN(C(=O)Cc1ccc(C)s1)C2,-,-,-,41.22%,-,-
CCC[C@H]1CN(Cc2ccc(N(C)C)nc2)C[C@@H]1NS(=O)(=O)CC,5.946%,-6.207%,13.25%,1.792%,-0.4341%,2.213%

Once more, the final 2:

| compound | TcHisRS | Pks13 thioesterase | CoaBC | Leishmania in macrophages | PfKRS1 | MtTrpRS |
|---|---|---|---|---|---|---|
| `[H][C@@]12C[C@@H](OC)C[C@]1([H])CN(C(=O)Cc1ccc(C)s1)C2` | - | - | - | 41.22% | - | - |
| `CCC[C@H]1CN(Cc2ccc(N(C)C)nc2)C[C@@H]1NS(=O)(=O)CC` | 5.946% | -6.207% | 13.25% | 1.792% | -0.4341% | 2.213% |

The values are deposited in ChEMBL (CHEMBL3988442, “University of Dundee, Small-Polar-MMV Screening Library” (2021)).